Measured values taken from PubChem BioAssay AID540276 (National Center for Advancing Translational Sciences (NCATS), 2011).
The campaign covered roughly 300,000 compounds. About 5,400 (1.8%) were called active. Inconclusive results, whose numbers are uncertain, are shown with a selection of clear calls. The call rests on the fitted dose curve; tested in HEK293 cells. A potency beside an inconclusive call is a rough fit, not a confirmed value.

Assay: qHTS for inhibitors of binding or entry into cells for Marburg Virus
Details: Marburg virus pseudotyped entry inhibition, cell reporter; series mostly up to 37.8 µM
Potency means the concentration at half of the fitted maximal effect.

Structure (SMILES) | Potency
CC1CCN(C(=S)c2cn(Cc3cccc(F)c3)c3ccccc23)CC1 | inconclusive: 2.82 µM [inhibitor, partial curve, poor fit]
Cc1ccc(-c2nnc(/C=C/c3ccccc3)o2)cc1 | inconclusive: 29.1 µM [activator, single point]
O=C(O)C1CCC(CN(Cc2cccc(Br)c2)C(=S)Nc2ccccc2F)CC1 (centres undefined) | inconclusive: 6.31 µM [activator, single point]
Cc1ccc(CSCCNC(=O)CN(c2cccc(C)c2C)S(=O)(=O)c2ccccc2)cc1 | inconclusive: 39.8 µM [inhibitor, partial curve, poor fit]
Cc1ccc(NC(=S)N(C)Cc2cn(C)c3ccccc23)cc1 | inconclusive: 32.6 µM [inhibitor, single point]
CCCOCc1cc(CN2CCN(c3ccccc3OC)CC2)c(O)c2ncccc12 | inconclusive: 3.16 µM [inhibitor, full curve, poor fit]
Cc1c(NC(=O)C(=O)/C=C(\O)c2ccc(Cl)cc2)c(=O)n(-c2ccccc2)n1C | inconclusive: 0.112 µM [inhibitor, full curve, poor fit]
N#CC(C#N)=C1SC(=Nc2ccccc2)C(=Nc2ccccc2)N1c1ccccc1 | inconclusive: 11.2 µM [inhibitor, partial curve, poor fit]
COc1ccc(OC)c(C(=O)COC(=O)COc2ccccc2)c1 | inactive
O=C(NC(c1ccccc1)c1c(O)ccc2ccccc12)c1ccccc1Cl (centres undefined) | inactive
CCc1ccc(C(=O)Nc2cc3c(cc2Cl)OCCCO3)cc1 | inconclusive: 0.112 µM [activator, full curve, poor fit]
COc1ccc(-n2nc(C(=O)NCC(=O)NC3CCCCC3)c3ccccc3c2=O)cc1 | inconclusive: 3.98 µM [activator, full curve, poor fit]
CCN(c1ccccc1)S(=O)(=O)c1ccc(C(=O)Nc2ccncc2)cc1 | inconclusive: 17.8 µM [inhibitor, single point]
O=C(CCc1ccccc1)Nc1ccc(NC(=O)c2ccco2)cc1 | inactive
CCn1nnnc1SCC(=O)N1CCN(Cc2ccc3c(c2)OCCO3)CC1 | inactive
COc1ccc(NC(=O)c2[nH]c(C)c(C(C)=O)c2C)cc1 | inconclusive: 2.51 µM [activator, single point]
COc1cccc(CNCc2ccco2)c1O | inactive
COC(=O)Nc1nc(-c2ccc(F)cc2)c(C)s1 | inactive
O=C(COC(=O)c1ccc2ccccc2n1)c1ccccc1 | inactive
CCOc1ccc(N(CC(=O)NCc2cccs2)S(=O)(=O)c2c(C)noc2C)cc1 | inactive
N#CCc1ccc(OC(=O)c2cnccc2C(F)(F)F)cc1 | inactive
CCOC(=O)c1sc(-c2ccc(F)cc2)cc1N | inconclusive: 0.92 µM [activator, single point]

Arranged by molecular weight (largest number first): some entries from above.
Structure (SMILES) | Potency
O=C(O)C1CCC(CN(Cc2cccc(Br)c2)C(=S)Nc2ccccc2F)CC1 (centres undefined) | inconclusive: 6.31 µM [activator, single point]
CCOc1ccc(N(CC(=O)NCc2cccs2)S(=O)(=O)c2c(C)noc2C)cc1 | inactive
CCCOCc1cc(CN2CCN(c3ccccc3OC)CC2)c(O)c2ncccc12 | inconclusive: 3.16 µM [inhibitor, full curve, poor fit]
N#CC(C#N)=C1SC(=Nc2ccccc2)C(=Nc2ccccc2)N1c1ccccc1 | inconclusive: 11.2 µM [inhibitor, partial curve, poor fit]
CCn1nnnc1SCC(=O)N1CCN(Cc2ccc3c(c2)OCCO3)CC1 | inactive
CCN(c1ccccc1)S(=O)(=O)c1ccc(C(=O)Nc2ccncc2)cc1 | inconclusive: 17.8 µM [inhibitor, single point]
COc1ccc(OC)c(C(=O)COC(=O)COc2ccccc2)c1 | inactive
O=C(COC(=O)c1ccc2ccccc2n1)c1ccccc1 | inactive
COc1ccc(NC(=O)c2[nH]c(C)c(C(C)=O)c2C)cc1 | inconclusive: 2.51 µM [activator, single point]
COc1cccc(CNCc2ccco2)c1O | inactive

The results go on.

Structure (SMILES) | Potency
COc1ccc(OC)c(Nc2nc(-c3sc(N)nc3C)cs2)c1 | inactive
O=C(Nc1nc(-c2ccc(S(=O)(=O)N3CCCCCC3)cc2)cs1)c1cccs1 | inconclusive: 5.8 µM [inhibitor, full curve]
Cc1cc(-c2ccccc2)nc(N/N=C/c2ccco2)n1 | inactive
CC(=O)Nc1ccccc1OCCOc1ccc(Br)cc1 | inconclusive: 35.5 µM [inhibitor, single point]
COc1ccc(N2CCN(C(=O)CN3C(=O)NC(C)(c4ccc5ccccc5c4)C3=O)CC2)cc1 (centres undefined) | inconclusive: 22.4 µM [inhibitor, single point]
Cc1nn(CC(C)C)c(Cl)c1C(=O)NC1CCC(C)CC1 (centres undefined) | inconclusive: 0.794 µM [activator, full curve, poor fit]
COC(=O)c1ccc(C(=O)OC)c(NC(=O)CCS(=O)(=O)Cc2ccccc2)c1 | inconclusive: 2.24 µM [inhibitor, full curve, poor fit]
CCOc1ncccc1C(=O)OCC(=O)Nc1ccc(-c2nc3ccc(C)cc3s2)cc1 | active: 12.6 µM
CNC(=S)N(Cc1ccco1)Cc1cc2cc(OC)c(OC)cc2[nH]c1=O | inactive
CC(C)c1nnc(NC(=O)COc2ccccc2[N+](=O)[O-])s1 | inconclusive: 6.31 µM [activator, partial curve]
Cc1ccc(-c2csc(NNC(=O)c3ccccc3)n2)cc1 | inconclusive: 22.4 µM [inhibitor, single point]
CCOc1ccc(/C(O)=C2/C(=O)C(=O)N(CCOCCO)C2c2ccc(F)cc2)cc1 (centres undefined) | inconclusive: 2.82 µM [activator, full curve, poor fit]
CCOc1ccc2nc(NC(=O)c3nc(SCc4ccc(C)cc4)ncc3Cl)sc2c1 | inactive
CCC1CCc2sc(C(=O)NC3CCN(Cc4ccccc4)CC3)cc2C1 (centres undefined) | inconclusive: 35.5 µM [inhibitor, single point]
Cc1ccc2[nH]c(C(=O)N3CCCCC3)cc2c1 | inactive
CCOc1ccc(C(=O)Nc2ccc3nc4c(c(Nc5ccccc5OC)c3c2)CCCC4)cc1 | inconclusive: 2.82 µM [inhibitor, partial curve, poor fit]
Cc1oc(-c2ccccc2)cc1C(=O)Nc1cccc(/C=C/C(=O)O)c1 | inconclusive: 35.5 µM [inhibitor, single point]
COc1ccc(C(C(=O)NC2CCCCC2)N(C(=O)Cc2c[nH]c3ccccc23)c2ccccc2)cc1OC (centres undefined) | inconclusive: 25.1 µM [inhibitor, single point]
COc1ccc(C(C(=O)NC(C)(C)C)N(C(=O)CCC(=O)Nc2cc(C)on2)c2cccc(C)c2C)cc1 (centres undefined) | inconclusive: 3.16 µM [inhibitor, single point]
CC1CCCC(C)N1C(=O)CN1C(=O)C(C)(C)Oc2ccc(C(=O)NC3CCCCC3)cc21 (centres undefined) | inactive
Cc1ccc(C)c(S(=O)(=O)N2CCCOC2CNC(=O)C(=O)NCc2ccc3c(c2)OCO3)c1 (centres undefined) | inconclusive: 35.5 µM [inhibitor, single point]
Cc1c(C(=O)N2CCN(c3ccccc3)CC2)sc2ncnc(N3CCN(c4ccccn4)CC3)c12 | inactive
